The values that follow come from PubChem BioAssay AID1347426 (Functional Genomics Laboratory (NCATS/FGL), 2020).

The whole screen tested about 31,000 sequences, of which about 1,400 (4.5%) were called active.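 How the source made its calls: active means median seed-adjusted z-score above 1 or below -1; inactive means the rest.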 The list shows a part of the results.

A short description of the experiment: Novel Modifiers of Survival Motor Neuron (SMN) Protein: Gene Identification via Genome-wide siRNA Screen.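 Further: luminescence tracks full-length SMN protein made from the SMN2 reporter.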 To be noted: HEK293T SMN2-luciferase reporter, siRNA knockdown, 72 h; actives lie on both sides. In outline:
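siRNA screen, 10418 genes ×3 siRNAs; 1 pmol/well, lipid reverse transfection into HEK293T SMN2-luc reporter line. 72 h, 37 °C, 5% CO2; ONE-Glo readout. Data: neg-ctrl normalized, log10, MAD; hit = MAD >1.0 or < -1.0.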
On the technique in general: Reporter assays use an easily measured gene product as a stand-in for the process of interest.
Regarding GUCGUGAUGUGAGUAGGUATT against TAF15, the median seed-adjusted z-score was inactive: 0.357. Regarding CUCUUUGACCGGUUGCUCATT against EGLN2, the median seed-adjusted z-score was inactive: -0.349.

GUAUCAACGGGACAGAUGATT against HOMER1: the median seed-adjusted z-score was inactive: 0. For GCUCAGAUCGAGGAAUGCATT against TCEA2, the median seed-adjusted z-score is inactive: 0.552.

In the case of GCAGAAAGGUGUAACAUAATT against DDI2, the median seed-adjusted z-score is active: 1.27. Regarding CUCUGGAGCUCGACAAAAATT against DHRS7C, the median seed-adjusted z-score is inactive: -0.398. As for AUCCAUUGGUUGUCCAUCATT against TM9SF1, the figure is inactive: 0.14. Regarding GGGCUGUACUGAUACUCCATT against ARSG, the median seed-adjusted z-score was inactive: -0.133. As for UGGAGACGCAAGAACAAAATT against P2RY11, the figure is inactive: 0.211. For the sequence CCAUUGCAAUCAACACCAATT against ALOX5, the median seed-adjusted z-score was inactive: -0.201. GGCUGCAGGUCACACUUGATT against SHARPIN: the median seed-adjusted z-score is inactive: -0.00778.

Regarding AGACCACGCUCAGAGCUCATT against NXPH3, the median seed-adjusted z-score was inactive: 0.056.

CGUUCAGACCAGCUCAAAATT against WT1: the median seed-adjusted z-score was inactive: 0.236. On to GCAUCUAUGUAACAAAGAUTT against DLG4, for which the median seed-adjusted z-score was inactive: -0.498. Turning to CAGAUAUUAUGAAGAAUUUTT against GALNS, the median seed-adjusted z-score was inactive: 0.0287. For GAAUUAUCUCUACAGUGAATT against RPP30, the median seed-adjusted z-score was inactive: -0.656.

As to GGGACUUAGCAAAAAGUCATT against ZNF169, the median seed-adjusted z-score is inactive: 0. As for GCUCUACGAAGAUCUGGAATT against VHL, the median seed-adjusted z-score is inactive: -0.0797. Turning to CAGAUACUGUGAUACGGAUTT against PDK1, the median seed-adjusted z-score was inactive: -0.00904. For the sequence CACCAGCUCAAAAACGUAATT against BTK, the median seed-adjusted z-score is inactive: -0.0648.

As to CCACUGGAAUGGUACUUAUTT against UBR1, the median seed-adjusted z-score was inactive: -0.775. As for UGAGUUGCCCUGAUUUGAATT against AIF1, the figure is inactive: -0.0293. The result for GCUGGGCCGAGUACCUUAATT against PDX1 reads inactive: 0; that for GGAGCUUCGCCAAGACUCATT against OTP, inactive: 0.00717; that for CCUUCAAUGUGGGCUACCATT against DEGS2, inactive: -0.305. In the case of AGACCACCAAGGUUUCUUUTT against KCNH6, the median seed-adjusted z-score is inactive: 0.424. Regarding CCAGCACGUUCAAACUGAUTT against SLC27A5, the median seed-adjusted z-score was inactive: 0.441. On to GCAACCACCAAGAGUUUGATT against KCNS1, for which the median seed-adjusted z-score was inactive: -0.167. For CCAGUUUACAGUAGCUAUATT against CPNE4, the median seed-adjusted z-score was inactive: -0.0933. As for GCAUCACCUUCUUUCGGAUTT against UNC13A, the figure is active: -2.1; as for GGACCUAGUGUGAGCAUAATT against COL14A1, inactive: 0.19. As for GGAUGGACAUUCGCAAAGUTT against PDXK, the figure is inactive: -0.247. Consider CAACCUUUCUUGUUAGUAATT against DHRS7, for which the median seed-adjusted z-score was inactive: 0.255. Consider GACUUGAUUGUAACCAAUATT against AMT, for which the median seed-adjusted z-score was inactive: -0.506.

In the case of GUUUUGAGGUCAACAAGAATT against ZMAT2, the median seed-adjusted z-score was inactive: 0.104.

On to ACACGAACCCUAUACCGCUTT against NOBOX, for which the median seed-adjusted z-score is inactive: -0.426. Consider CGUAGUAUAUUAACAAGUATT against MKKS, for which the median seed-adjusted z-score is active: 1.03. On to AGAAAACCCUAAACCACAATT against YBX1, for which the median seed-adjusted z-score was inactive: -0.0115. As to CCAUCUAUGAGGCGGGAAATT against MFI2, the median seed-adjusted z-score was inactive: 0.365. As for AGCUGUCCGUUUGAUUUUUTT against CCR1, the figure is inactive: 0; as for GGGACUCAGAAAUCACGCATT against STK19, inactive: -0.188; as for GCAUAGGCCCAGUAACUUATT against SLC25A34, inactive: -0.256.

For CCAGGAGGAAUGGACUUUATT against ZNF778, the median seed-adjusted z-score is inactive: 0.0459. For CUACUAAUCCUGACUAUUATT against TBC1D8B, the median seed-adjusted z-score was inactive: -0.985. For the sequence GGAUUGAGGAGAAACGUAATT against RELA, the median seed-adjusted z-score is inactive: -0.646. As to GGAAUAUGGGAAUACAUGUTT against ZNF529, the median seed-adjusted z-score is inactive: -0.243. For AGAAAUCUUUUAGCCUUGATT against PINX1, the median seed-adjusted z-score was inactive: 0.11. Regarding GGACAGACCAAGAGAAUAATT against PPP1R16B, the median seed-adjusted z-score was inactive: -0.892. As for GGUCCAAAAUGUACUUAGATT against RGS8, the figure is inactive: 0.739; as for CGACCAUCAUGGAAAACAUTT against ABCB8, inactive: -0.558. As for CAUUGGAAAGUGCGAGUUATT against HUWE1, the figure is inactive: 0.734; as for CCAUUAGAAGAUACGCAGATT against DIS3, inactive: 0.266; as for GGCAGAAGUUGGUUGACAATT against DALRD3, inactive: 0.338. For GGACCAGAGAGACUUCAUUTT against ASTL, the median seed-adjusted z-score was inactive: 0.722.

As to CAAAGAGACUGUGAGGAAATT against MAN2C1, the median seed-adjusted z-score is inactive: -0.489. The result for GGUUUAUACAACAACCAGATT against NOD1 reads inactive: 0.092; that for CAUGGUCCAUUAUUCGUGATT against ATP6V1A, inactive: -0.0106; that for CACUAUAUGCUAUCCAGAATT against GNAI1, inactive: -0.233. Regarding CCAGAAUGGUUCAAUGUAUTT against PCBD2, the median seed-adjusted z-score was inactive: -0.0549. As to CCUGAAAUUCGGAUAGUGATT against DLX2, the median seed-adjusted z-score is inactive: -0.527. In the case of GCCUUCUCCUCUCAUAACATT against ZNF683, the median seed-adjusted z-score was inactive: -0.452. The result for AAGCAGUGCUGAUCCUUCATT against LAMB3 reads inactive: -0.0106; that for GAUAGAUCGUUUUAAGAGATT against MST4, inactive: 0.343; that for GCACAGAGUUUAAUGAGCATT against VSNL1, inactive: 0.0569.

GAACCAUACUCGCAAUACATT against NR1H4: the median seed-adjusted z-score was inactive: -0.056.

Regarding CGUAGAGUCCGCCAAGAAATT against LBX1, the median seed-adjusted z-score is inactive: -0.36.

Turning to GGAAUGAUCUGACUAACUUTT against PECI, the median seed-adjusted z-score is inactive: -0.0254. Regarding GAUUUAUCCCUGUACUUGATT against ERAP1, the median seed-adjusted z-score is inactive: -0.0666. GCAUCUGAAUUUGGAUUAATT against CTH: the median seed-adjusted z-score was inactive: 0.629. Consider CAUUCGAAGAUAUAUGGUATT against ZNF491, for which the median seed-adjusted z-score was inactive: 0.0642. Regarding GCAUUCUAUAGAUUGACAATT against MGST1, the median seed-adjusted z-score is inactive: -0.0144. For the sequence GGUACAGCCUCAAAGCGUATT against ABCG4, the median seed-adjusted z-score was inactive: -0.439. Regarding GCAAGAAACUCCACCCUUUTT against RGS3, the median seed-adjusted z-score is inactive: 0.065.

On to UGAUCAAAGAGACAAUGGATT against DNAL4, for which the median seed-adjusted z-score is inactive: 0. Turning to CUCCUACGUUUGAAAAACATT against ACPL2, the median seed-adjusted z-score was inactive: 0.0392.

Consider GAGGCAUCACAGACACUAATT against B3GNT5, for which the median seed-adjusted z-score was inactive: -0.452. Turning to GCAUCACCCAACAAGUACATT against PZP, the median seed-adjusted z-score is inactive: -0.878. Consider CACUUUCAACGGGCAAAGATT against NMI, for which the median seed-adjusted z-score is inactive: 0.982. Consider AGAUGUACAACGACCCAAATT against AGBL4, for which the median seed-adjusted z-score was inactive: 0.487. The result for CGGGAGCAGUUCUAUAAGATT against UBE2G2 reads inactive: -0.043. Take GACCCAACCAAAACCCGAATT against KRT12: the median seed-adjusted z-score is inactive: -0.0457. In the case of GCAGAUCCAUCAACUACGATT against UBR4, the median seed-adjusted z-score was inactive: 0.602.

For the sequence GGAAGUAGCUAGUAAAGCATT against USP38, the median seed-adjusted z-score was inactive: 0.216. For the sequence GCAGUGGACGGCAAACUUATT against HOXC8, the median seed-adjusted z-score was inactive: -0.0285. With GUUACGACCUGGAAGAUUATT against SPATA5L1, the median seed-adjusted z-score was inactive: 0.252.

As to GUCUACCCAUGGAUGAAAATT against HOXC4, the median seed-adjusted z-score is inactive: -0.0114.

Consider CAGACGAAAUUUUGGGAUUTT against FUT11, for which the median seed-adjusted z-score was inactive: -0.15. Consider CUAUCACCGGAUUAACGAATT against ACOX1, for which the median seed-adjusted z-score was inactive: -0.897.

In the case of GCACUCGAGUAAUUAGCAATT against DOCK10, the median seed-adjusted z-score was inactive: -0.201.

As for CCUAGGUUCUGCAACUACATT against ZFP106, the median seed-adjusted z-score was inactive: 0.286. Regarding GAAAGUGCUCGGUGCCUUUTT against HBB, the median seed-adjusted z-score is inactive: -0.151. As to GCGGGAGAAGCUUACCUUUTT against DPP3, the median seed-adjusted z-score was inactive: -0.261.

With GGGACAGUGGAGACGAAAATT against PALLD, the median seed-adjusted z-score is inactive: -0.307. Take GGAUGUCUGUUAUGACACUTT against PLA2G12B: the median seed-adjusted z-score is inactive: -0.162.

In the case of CAGUUUACCUUCAAUCAGATT against NLRP11, the median seed-adjusted z-score is inactive: 0.181. Turning to GCUAUGGACUAUUCGAAUATT against IFIT3, the median seed-adjusted z-score was inactive: -0.437.

For GCUUGUCUUUCAACCCGAUTT against PARP4, the median seed-adjusted z-score is inactive: -0.226.

For the sequence CCUGGGAUUUGGUUCGUUUTT against SCTR, the median seed-adjusted z-score is inactive: -0.352. GCCGAUCAAAGUACUCAGATT against RNF133: the median seed-adjusted z-score was inactive: 0. As for GUAAGUCCAUAUCAAGACATT against SKIL, the figure is inactive: -0.868; as for CAAAAUCGAGUGAUCUAUATT against ESCO2, inactive: 0. With GCAUCUUGGUGAAACGUGATT against EIF4A3, the median seed-adjusted z-score was inactive: 0.126.

As for GCAGGAACCACAUUAUGGATT against RBX1, the median seed-adjusted z-score was inactive: -0.000499.

As for AGCUCCAUAUAACAAGGCATT against PLA2G1B, the median seed-adjusted z-score was inactive: -0.411. As for CAUCCAACAUAGAAGAGUUTT against CACNA1I, the figure is inactive: 0.346; as for GGGAUGGGUUCGUACCUUUTT against CLDN6, inactive: -0.281. As for CGGUGACCGUUCAACCAUATT against ZNF391, the figure is inactive: 0.056.
